Laboratory results taken from PubChem BioAssay AID330 (DTP/NCI, 2004).
The list does not hold the whole screen: it is rich in T/C values a quarter to a half above the control, in often repeated tests (any T/C) and in doses without a T/C. Other doses and runs of a compound stand elsewhere. T/C gives the treated animals as a percentage of the vehicle group. Some entries give survivors of the animals treated and no T/C: the source files T/C as zero there, which appears to mark a toxic dose or a test without result, not a measured value. Some survivor counts are full or nearly so, which does not show that the dose was tolerated: the source hardly ever lists a survival T/C far under the control, and the zero likely stands for such cases as well. Survivors were counted at the toxicity check, usually on the fifth day, unless a day is given; later deaths do not show. Schedule codes are those of the source, taken here to give the interval after Q, in days (D) or hours (H), and the number of doses after X. Some doses were run more than once; the results are listed from low to high. For survival time, the PubChem record calls one and a half times the control and up active, and a quarter to a half above the control has no call in these data; cut-offs in other NCI protocols can differ. Some T/C values are followed by the survivors on the day toxicity was checked, most often the fifth; where none is given, no animal had died by that day.

System: P388 leukemia ip, CD2F1 mice, survival T/C
Test: NCI In Vivo Anticancer Drug Screen. Data for tumor model P388 Leukemia (intraperitoneal) in CD2F1 (CDF1) mice
Conditions: T/C endpoint: median survival time, higher T/C = longer survival
[1] = dose: 60.0 mg/kg/injection, schedule: Q01DX001 (ip), vehicle: alkali diluted with saline
[2] = dose: 100.0 mg/kg/injection, schedule: Q04DX002 (ip), vehicle: saline with Tween-80

Nc1nc(=S)c2[nH]cnc2[nH]1
T/C (dose: 0.25 mg/kg/injection, schedule: Q01DX009 (ip), vehicle: alkali diluted with saline): 128 % of control
T/C (dose: 0.38 mg/kg/injection, schedule: Q01DX009 (ip), vehicle: acid diluted with saline): 126 % of control
T/C (dose: 0.38 mg/kg/injection, schedule: Q01DX009 (ip), vehicle: alkali diluted with saline): 127 % of control
T/C (dose: 0.5 mg/kg/injection, schedule: Q01DX009 (ip), vehicle: acid diluted with saline): 126 % of control
T/C (dose: 0.5 mg/kg/injection, schedule: Q01DX009 (ip), vehicle: alkali diluted with saline): 128 % of control
T/C (dose: 0.52 mg/kg/injection, schedule: Q01DX009 (ip), vehicle: acid diluted with saline): 129 and 131 % of control
T/C (dose: 0.75 mg/kg/injection, schedule: Q01DX009 (ip), vehicle: acid diluted with saline): 129 % of control
T/C (dose: 0.76 mg/kg/injection, schedule: Q01DX009 (ip), vehicle: alkali diluted with saline): 133 % of control
T/C (dose: 0.86 mg/kg/injection, schedule: Q01DX009 (ip), vehicle: acid diluted with saline): 134 [6 of 7 alive] and 140 % of control
T/C (dose: 0.96 mg/kg/injection, schedule: Q01DX009 (ip), vehicle: alkali diluted with saline): 136 % of control
T/C (dose: 1.0 mg/kg/injection, schedule: Q01DX009 (ip), vehicle: acid diluted with saline): 133 % of control
T/C (dose: 1.0 mg/kg/injection, schedule: Q01DX009 (ip), vehicle: alkali diluted with saline, evaluated on day 30): 126 and 145 % of control
T/C (dose: 1.0 mg/kg/injection, schedule: Q01DX009 (ip), vehicle: alkali diluted with saline, evaluated on day 45): 130 and 141 % of control
T/C (dose: 1.2 mg/kg/injection, schedule: Q01DX009 (ip), vehicle: alkali diluted with saline): 146 % of control
T/C (dose: 1.25 mg/kg/injection, schedule: Q01DX009 (ip), vehicle: alkali diluted with saline): 143 % of control
T/C (dose: 1.44 mg/kg/injection, schedule: Q01DX009 (ip), vehicle: acid diluted with saline): 148 % of control
T/C (dose: 1.5 mg/kg/injection, schedule: Q01DX005 (ip), vehicle: alkali diluted with saline): 135 and 135 % of control [5 of 6 alive]
T/C (dose: 1.5 mg/kg/injection, schedule: Q01DX009 (ip), vehicle: alkali diluted with saline): 138 and 143 % of control
T/C (dose: 1.75 mg/kg/injection, schedule: Q01DX009 (ip), vehicle: alkali diluted with saline): 137 % of control
T/C (dose: 2.0 mg/kg/injection, schedule: Q01DX009 (ip), vehicle: acid diluted with saline): 136 % of control
T/C (dose: 2.0 mg/kg/injection, schedule: Q01DX009 (ip), vehicle: alkali diluted with saline, evaluated on day 30): 151 and 166 % of control
T/C (dose: 2.0 mg/kg/injection, schedule: Q01DX009 (ip), vehicle: alkali diluted with saline, evaluated on day 45): 126 and 135 % of control
T/C (dose: 2.9 mg/kg/injection, schedule: Q01DX009 (ip), vehicle: saline): 145 % of control
T/C (dose: 3.0 mg/kg/injection, schedule: Q01DX005 (ip), vehicle: alkali diluted with saline, evaluated on day 5): 132 % of control
T/C (dose: 3.0 mg/kg/injection, schedule: Q01DX005 (ip), vehicle: alkali diluted with saline, evaluated on day 45): 142 and 148 % of control
T/C (dose: 3.0 mg/kg/injection, schedule: Q01DX009 (ip), vehicle: acid diluted with saline): 134 % of control
T/C (dose: 4.0 mg/kg/injection, schedule: Q01DX005 (ip), vehicle: alkali diluted with saline): 138 % of control
T/C (dose: 4.0 mg/kg/injection, schedule: Q01DX009 (ip), vehicle: acid diluted with saline, evaluated on day 5): 128 and 170 % of control
T/C (dose: 4.0 mg/kg/injection, schedule: Q01DX009 (ip), vehicle: acid diluted with saline, evaluated on day 30): 104 and 140 % of control
T/C (dose: 4.0 mg/kg/injection, schedule: Q01DX009 (ip), vehicle: alkali diluted with saline): 135 and 140 % of control
T/C (dose: 4.0 mg/kg/injection, schedule: Q04DX003 (ip), vehicle: alkali diluted with saline): 137 % of control
T/C (dose: 5.4 mg/kg/injection, schedule: Q04DX003 (ip), vehicle: acid diluted with saline): 127 % of control
T/C (dose: 6.0 mg/kg/injection, schedule: Q01DX005 (ip), vehicle: alkali diluted with saline, evaluated on day 5): 137 % of control
T/C (dose: 6.0 mg/kg/injection, schedule: Q01DX005 (ip), vehicle: alkali diluted with saline, evaluated on day 45): 140 % of control
T/C (dose: 6.75 mg/kg/injection, schedule: Q01DX009 (ip), vehicle: saline): 127 % of control
T/C (dose: 8.0 mg/kg/injection, schedule: Q01DX005 (ip), vehicle: alkali diluted with saline): 147 % of control
T/C (dose: 8.0 mg/kg/injection, schedule: Q04DX003 (ip), vehicle: alkali diluted with saline): 136 % of control
T/C (dose: 9.0 mg/kg/injection, schedule: Q04DX003 (ip), vehicle: acid diluted with saline, evaluated on day 5): 139 % of control
T/C (dose: 9.0 mg/kg/injection, schedule: Q04DX003 (ip), vehicle: acid diluted with saline, evaluated on day 30): 144 % of control
T/C (dose: 10.0 mg/kg/injection, schedule: Q04DX003 (ip), vehicle: alkali diluted with saline): 135 % of control
T/C (dose: 12.0 mg/kg/injection, schedule: Q01DX005 (ip), vehicle: alkali diluted with saline, evaluated on day 5): 131 % of control
T/C (dose: 12.0 mg/kg/injection, schedule: Q01DX005 (ip), vehicle: alkali diluted with saline, evaluated on day 45): 140 % of control
T/C (dose: 15.0 mg/kg/injection, schedule: Q04DX003 (ip), vehicle: acid diluted with saline): 143 % of control
T/C (dose: 16.0 mg/kg/injection, schedule: Q04DX003 (ip), vehicle: alkali diluted with saline): 134 % of control
T/C (dose: 18.0 mg/kg/injection, schedule: Q04DX003 (ip), vehicle: acid diluted with saline): 136 % of control
T/C (dose: 25.0 mg/kg/injection, schedule: Q04DX003 (ip), vehicle: acid diluted with saline): 134 % of control
T/C (dose: 30.0 mg/kg/injection, schedule: Q01DX001 (ip), vehicle: alkali diluted with saline, evaluated on day 5): 125 and 128 % of control
T/C (dose: 30.0 mg/kg/injection, schedule: Q01DX001 (ip), vehicle: alkali diluted with saline, evaluated on day 45): 131 [9 of 10 alive] and 136 % of control
T/C (dose: 32.0 mg/kg/injection, schedule: Q04DX003 (ip), vehicle: alkali diluted with saline): 140 % of control
T/C (dose: 40.0 mg/kg/injection, schedule: Q01DX001 (ip), vehicle: alkali diluted with saline, evaluated on day 5): 118 [8 of 9 alive] and 140 % of control
T/C (dose: 40.0 mg/kg/injection, schedule: Q01DX001 (ip), vehicle: alkali diluted with saline, evaluated on day 45): 138 and 141 % of control
T/C (dose: 40.0 mg/kg/injection, schedule: Q04DX003 (ip), vehicle: alkali diluted with saline): 128 % of control [6 of 8 alive]
T/C (dose: 50.0 mg/kg/injection, schedule: Q01DX001 (ip), vehicle: alkali diluted with saline, evaluated on day 5): 128 [8 of 9 alive] and 145 % of control
T/C (dose: 50.0 mg/kg/injection, schedule: Q01DX001 (ip), vehicle: alkali diluted with saline, evaluated on day 45): 139 [7 of 10 alive] and 144 % of control
T/C [1]: 132 % of control [6 of 8 alive]
survivor count [1]: 2 of 4 and 6 of 10
T/C (dose: 70.0 mg/kg/injection, schedule: Q01DX001 (ip), vehicle: alkali diluted with saline): 142 % of control [9 of 10 alive]

CCN1N=Nc2ccccc2C1O (centres undefined)
survivor count [2]: 5 of 6
survivor count (dose: 200.0 mg/kg/injection, schedule: Q04DX002 (ip), vehicle: saline with Tween-80): 0 of 6
survivor count (dose: 400.0 mg/kg/injection, schedule: Q04DX002 (ip), vehicle: saline with Tween-80): 0 of 6

N#CC1CC2(CCC1=O)c1ccccc1-c1ccccc12 (centres undefined)
survivor count [2]: 2 of 6

O=C1C(Cl)=C(Oc2ccccc2Cl)C(=O)C(Cl)=C1Oc1ccccc1Cl
survivor count (dose: 25.0 mg/kg/injection, schedule: Q01DX005 (ip), vehicle: Klucel (hydroxypropylcellulose) (HPC)): 6 of 6
survivor count (dose: 50.0 mg/kg/injection, schedule: Q01DX005 (ip), vehicle: Klucel (hydroxypropylcellulose) (HPC)): 6 of 6

COc1cc2c(cc1O)CC1c3c(cc(O)c(OC)c3-2)CCN1C (centres undefined)
survivor count (dose: 200.0 mg/kg/injection, schedule: Q01DX005 (ip), vehicle: saline with Tween-80): 0 of 6
